Some of the results follow.
Columns and labels:
Assay in all cases: log2 fold change, soluble protein after heating vs DMSO (PISA); higher = thermal stabilisation; K562 lysate, 10 uM; active = over 0.2 and 3.5 SD of the protein, either way, in both replicates (recomputed)
erlotinib = compound: C#Cc1cccc(Nc2ncnc3cc(OCCOC)c(OCCOC)cc23)c1 [erlotinib]
Outline: (§1)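 The values are log-two fold changes in thermal stability compared with solvent controls and come from duplicates. They were obtained by TMTpro 16plex LC-MS/MS, with channel sums equalised, on the supernatant after 21,000xg for 90 min. That supernatant came from crude K562 extract at 1 mg/mL protein treated with 10 μM compound for 30 min, heated for 3 min across 48°C-58°C, pooled and brought to 0.5% NP-40 at 4°C.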

Protein sequences, listed by entry. Tags and fused reporters are not part of them. Lines headed by an entry give the natural chain unless they say otherwise; changes in a name come on top.
UniProt Q8WXE1: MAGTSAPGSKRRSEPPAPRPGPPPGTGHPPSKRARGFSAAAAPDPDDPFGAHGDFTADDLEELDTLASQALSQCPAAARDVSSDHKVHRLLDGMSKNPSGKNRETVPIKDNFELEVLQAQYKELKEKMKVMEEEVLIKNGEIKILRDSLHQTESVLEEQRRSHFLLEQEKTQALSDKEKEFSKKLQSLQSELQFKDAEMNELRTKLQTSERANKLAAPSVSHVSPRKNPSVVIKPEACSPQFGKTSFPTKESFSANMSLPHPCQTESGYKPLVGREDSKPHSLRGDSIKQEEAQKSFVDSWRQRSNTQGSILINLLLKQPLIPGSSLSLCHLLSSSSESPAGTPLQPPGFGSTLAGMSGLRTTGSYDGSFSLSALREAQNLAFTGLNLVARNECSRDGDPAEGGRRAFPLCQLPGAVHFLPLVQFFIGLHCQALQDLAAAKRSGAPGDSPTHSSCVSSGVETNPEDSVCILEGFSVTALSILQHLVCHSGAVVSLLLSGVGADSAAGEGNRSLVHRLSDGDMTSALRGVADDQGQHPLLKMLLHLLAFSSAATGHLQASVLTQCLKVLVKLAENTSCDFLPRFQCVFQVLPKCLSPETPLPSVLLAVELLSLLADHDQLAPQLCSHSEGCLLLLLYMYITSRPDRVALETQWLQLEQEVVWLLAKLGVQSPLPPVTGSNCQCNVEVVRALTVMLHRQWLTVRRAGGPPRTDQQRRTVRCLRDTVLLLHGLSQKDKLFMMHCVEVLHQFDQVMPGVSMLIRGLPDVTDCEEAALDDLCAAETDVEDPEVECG
UniProt P38606, whole entry, looked up: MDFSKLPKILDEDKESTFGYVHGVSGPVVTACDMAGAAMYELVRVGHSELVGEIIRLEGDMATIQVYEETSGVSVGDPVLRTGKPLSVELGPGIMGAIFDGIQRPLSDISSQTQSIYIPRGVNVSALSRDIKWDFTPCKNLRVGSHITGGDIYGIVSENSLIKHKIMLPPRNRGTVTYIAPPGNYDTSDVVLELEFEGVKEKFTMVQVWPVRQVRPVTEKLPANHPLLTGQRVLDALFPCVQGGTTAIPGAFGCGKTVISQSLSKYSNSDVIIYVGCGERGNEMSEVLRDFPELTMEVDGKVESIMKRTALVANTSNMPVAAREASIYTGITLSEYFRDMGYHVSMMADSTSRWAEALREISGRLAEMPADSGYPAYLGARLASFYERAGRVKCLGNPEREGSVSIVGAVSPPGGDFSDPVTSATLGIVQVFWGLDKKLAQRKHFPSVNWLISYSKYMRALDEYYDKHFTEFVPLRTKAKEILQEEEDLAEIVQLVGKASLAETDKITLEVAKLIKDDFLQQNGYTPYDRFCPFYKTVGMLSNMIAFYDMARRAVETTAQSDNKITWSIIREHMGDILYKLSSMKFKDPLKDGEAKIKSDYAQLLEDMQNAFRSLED
UniProt P30049: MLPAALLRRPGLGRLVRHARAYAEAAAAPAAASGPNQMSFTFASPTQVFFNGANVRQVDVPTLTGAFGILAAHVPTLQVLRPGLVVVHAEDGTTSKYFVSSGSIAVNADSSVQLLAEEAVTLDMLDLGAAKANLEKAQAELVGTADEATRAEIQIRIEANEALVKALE
UniProt Q12797: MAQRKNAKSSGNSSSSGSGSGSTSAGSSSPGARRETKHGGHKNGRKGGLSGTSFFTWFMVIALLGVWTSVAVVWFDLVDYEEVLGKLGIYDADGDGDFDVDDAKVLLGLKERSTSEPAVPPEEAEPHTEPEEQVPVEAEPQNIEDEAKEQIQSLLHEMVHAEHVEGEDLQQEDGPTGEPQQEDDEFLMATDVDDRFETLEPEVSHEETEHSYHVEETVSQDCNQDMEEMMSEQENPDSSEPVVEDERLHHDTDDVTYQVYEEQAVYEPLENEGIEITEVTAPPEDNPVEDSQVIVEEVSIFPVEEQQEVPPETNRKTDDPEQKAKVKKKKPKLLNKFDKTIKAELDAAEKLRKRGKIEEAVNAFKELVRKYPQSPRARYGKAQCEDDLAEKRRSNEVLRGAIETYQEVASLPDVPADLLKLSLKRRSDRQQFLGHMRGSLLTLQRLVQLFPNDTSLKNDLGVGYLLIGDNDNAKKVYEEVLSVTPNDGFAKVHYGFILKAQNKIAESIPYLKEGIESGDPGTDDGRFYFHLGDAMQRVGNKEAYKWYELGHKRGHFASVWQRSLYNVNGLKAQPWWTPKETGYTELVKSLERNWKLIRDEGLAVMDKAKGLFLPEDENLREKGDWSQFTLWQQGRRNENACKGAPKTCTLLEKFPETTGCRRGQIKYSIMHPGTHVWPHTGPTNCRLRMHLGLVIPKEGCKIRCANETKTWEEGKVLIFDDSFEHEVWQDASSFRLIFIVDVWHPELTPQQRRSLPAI
UniProt P15313, whole entry, looked up: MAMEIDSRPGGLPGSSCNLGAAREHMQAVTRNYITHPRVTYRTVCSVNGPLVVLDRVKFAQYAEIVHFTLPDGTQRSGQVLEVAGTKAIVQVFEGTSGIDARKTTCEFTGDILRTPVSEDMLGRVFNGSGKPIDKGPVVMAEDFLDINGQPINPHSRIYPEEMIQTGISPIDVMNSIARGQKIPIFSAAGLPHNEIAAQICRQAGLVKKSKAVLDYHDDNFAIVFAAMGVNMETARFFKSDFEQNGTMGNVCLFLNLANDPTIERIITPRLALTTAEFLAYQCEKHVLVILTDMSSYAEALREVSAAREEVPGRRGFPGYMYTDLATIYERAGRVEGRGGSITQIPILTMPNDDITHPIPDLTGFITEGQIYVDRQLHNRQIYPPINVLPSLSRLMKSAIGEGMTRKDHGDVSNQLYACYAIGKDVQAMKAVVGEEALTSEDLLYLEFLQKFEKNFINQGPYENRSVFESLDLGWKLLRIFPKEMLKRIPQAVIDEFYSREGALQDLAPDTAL
UniProt O95671: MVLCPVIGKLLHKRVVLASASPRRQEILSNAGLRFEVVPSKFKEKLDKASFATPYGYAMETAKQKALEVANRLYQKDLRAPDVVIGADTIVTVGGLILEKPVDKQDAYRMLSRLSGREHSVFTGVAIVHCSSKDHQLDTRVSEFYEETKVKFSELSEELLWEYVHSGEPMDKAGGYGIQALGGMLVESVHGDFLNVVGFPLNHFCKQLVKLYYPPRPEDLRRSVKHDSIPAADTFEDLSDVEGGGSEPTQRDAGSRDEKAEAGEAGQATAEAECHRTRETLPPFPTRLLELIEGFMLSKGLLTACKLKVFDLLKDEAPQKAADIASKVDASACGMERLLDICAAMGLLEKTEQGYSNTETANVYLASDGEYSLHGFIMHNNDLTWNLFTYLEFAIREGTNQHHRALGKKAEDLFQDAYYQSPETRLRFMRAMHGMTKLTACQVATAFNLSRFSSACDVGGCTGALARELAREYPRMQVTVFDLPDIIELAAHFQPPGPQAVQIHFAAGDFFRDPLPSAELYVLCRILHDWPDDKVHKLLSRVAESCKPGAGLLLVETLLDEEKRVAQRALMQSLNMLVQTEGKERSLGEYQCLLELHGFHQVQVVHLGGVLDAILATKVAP
UniProt Q676U5: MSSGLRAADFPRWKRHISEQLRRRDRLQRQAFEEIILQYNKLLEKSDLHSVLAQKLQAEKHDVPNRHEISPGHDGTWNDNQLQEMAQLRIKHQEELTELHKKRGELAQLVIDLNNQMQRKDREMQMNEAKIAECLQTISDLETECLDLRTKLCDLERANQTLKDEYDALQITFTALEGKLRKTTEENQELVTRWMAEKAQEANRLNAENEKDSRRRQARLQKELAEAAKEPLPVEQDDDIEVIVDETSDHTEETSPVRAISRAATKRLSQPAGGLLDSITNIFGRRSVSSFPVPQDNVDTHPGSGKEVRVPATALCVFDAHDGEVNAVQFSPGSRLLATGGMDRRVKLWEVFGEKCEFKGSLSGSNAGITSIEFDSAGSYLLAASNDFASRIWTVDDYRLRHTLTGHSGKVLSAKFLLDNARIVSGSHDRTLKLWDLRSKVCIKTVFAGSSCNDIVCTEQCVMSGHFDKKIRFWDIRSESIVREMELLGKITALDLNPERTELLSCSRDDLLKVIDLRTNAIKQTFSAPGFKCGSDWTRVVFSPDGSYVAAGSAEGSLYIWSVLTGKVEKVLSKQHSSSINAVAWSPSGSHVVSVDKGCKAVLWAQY
UniProt Q8NBU5: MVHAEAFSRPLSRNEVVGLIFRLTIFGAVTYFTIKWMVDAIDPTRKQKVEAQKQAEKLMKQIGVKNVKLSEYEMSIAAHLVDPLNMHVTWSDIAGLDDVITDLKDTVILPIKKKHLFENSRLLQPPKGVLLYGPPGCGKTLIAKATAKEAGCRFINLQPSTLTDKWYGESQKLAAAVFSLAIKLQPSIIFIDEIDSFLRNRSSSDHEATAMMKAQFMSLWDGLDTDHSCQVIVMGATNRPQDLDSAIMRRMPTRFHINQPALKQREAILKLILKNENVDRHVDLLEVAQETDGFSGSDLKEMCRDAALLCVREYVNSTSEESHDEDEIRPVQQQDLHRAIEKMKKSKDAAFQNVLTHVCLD
UniProt Q8NB49: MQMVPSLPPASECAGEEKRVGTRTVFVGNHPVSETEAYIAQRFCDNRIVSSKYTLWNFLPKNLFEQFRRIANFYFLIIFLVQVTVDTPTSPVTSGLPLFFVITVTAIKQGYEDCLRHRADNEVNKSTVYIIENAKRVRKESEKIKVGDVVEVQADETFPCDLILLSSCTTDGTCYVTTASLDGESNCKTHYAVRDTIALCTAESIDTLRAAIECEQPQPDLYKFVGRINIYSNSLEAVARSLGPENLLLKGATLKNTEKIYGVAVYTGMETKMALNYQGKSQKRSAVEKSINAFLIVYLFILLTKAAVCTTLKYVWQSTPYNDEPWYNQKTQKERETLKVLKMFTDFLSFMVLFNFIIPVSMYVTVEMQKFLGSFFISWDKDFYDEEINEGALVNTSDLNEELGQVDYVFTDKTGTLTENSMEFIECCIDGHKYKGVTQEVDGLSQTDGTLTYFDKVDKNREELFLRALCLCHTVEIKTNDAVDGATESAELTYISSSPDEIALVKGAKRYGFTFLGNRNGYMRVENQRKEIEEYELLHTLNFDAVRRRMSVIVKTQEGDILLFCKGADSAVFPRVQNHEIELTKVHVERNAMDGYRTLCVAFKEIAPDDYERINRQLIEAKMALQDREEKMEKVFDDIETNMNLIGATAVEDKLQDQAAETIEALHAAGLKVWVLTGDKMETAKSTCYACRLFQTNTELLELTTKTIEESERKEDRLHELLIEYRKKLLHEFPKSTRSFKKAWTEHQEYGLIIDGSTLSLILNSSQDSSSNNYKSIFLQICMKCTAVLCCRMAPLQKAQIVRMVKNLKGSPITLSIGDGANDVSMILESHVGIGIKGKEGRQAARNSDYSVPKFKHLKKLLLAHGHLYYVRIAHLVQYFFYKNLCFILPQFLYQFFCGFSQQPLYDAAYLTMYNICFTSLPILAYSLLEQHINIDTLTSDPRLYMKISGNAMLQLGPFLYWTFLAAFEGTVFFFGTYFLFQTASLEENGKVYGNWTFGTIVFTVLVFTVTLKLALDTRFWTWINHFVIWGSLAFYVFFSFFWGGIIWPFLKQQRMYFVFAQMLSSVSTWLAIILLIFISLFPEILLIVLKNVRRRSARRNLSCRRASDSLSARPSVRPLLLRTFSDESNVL
UniProt Q9H6S1, whole entry, looked up: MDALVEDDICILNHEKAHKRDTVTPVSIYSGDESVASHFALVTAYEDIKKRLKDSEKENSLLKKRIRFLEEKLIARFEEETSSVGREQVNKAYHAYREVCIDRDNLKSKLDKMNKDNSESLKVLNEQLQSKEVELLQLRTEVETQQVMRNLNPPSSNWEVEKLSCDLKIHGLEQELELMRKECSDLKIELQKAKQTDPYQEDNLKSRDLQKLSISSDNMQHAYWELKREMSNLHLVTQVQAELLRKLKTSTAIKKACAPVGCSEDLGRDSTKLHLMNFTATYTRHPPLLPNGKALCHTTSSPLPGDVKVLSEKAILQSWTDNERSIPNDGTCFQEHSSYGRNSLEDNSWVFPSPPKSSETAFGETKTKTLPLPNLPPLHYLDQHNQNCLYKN
UniProt P04424, whole entry, looked up: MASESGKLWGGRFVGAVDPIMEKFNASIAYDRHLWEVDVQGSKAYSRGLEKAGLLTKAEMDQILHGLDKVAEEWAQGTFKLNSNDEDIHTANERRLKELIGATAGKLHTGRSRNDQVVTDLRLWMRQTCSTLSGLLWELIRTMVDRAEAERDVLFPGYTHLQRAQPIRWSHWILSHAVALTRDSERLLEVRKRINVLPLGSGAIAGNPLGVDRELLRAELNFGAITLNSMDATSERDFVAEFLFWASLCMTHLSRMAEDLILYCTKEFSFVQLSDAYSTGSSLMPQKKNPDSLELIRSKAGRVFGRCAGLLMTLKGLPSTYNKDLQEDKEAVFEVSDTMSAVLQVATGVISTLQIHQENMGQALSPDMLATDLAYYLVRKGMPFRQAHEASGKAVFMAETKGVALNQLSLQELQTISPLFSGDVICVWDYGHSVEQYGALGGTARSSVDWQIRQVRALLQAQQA

[1] = compound: C/C(=N\NC(=O)C1=CC(=CC=C1)S(=O)(=O)N2CCOCC2)/C3=C(C=CC(=C3)Cl)O
Outline: as §1

[2] = compound: C1=CC(=CC=C1C2=NC3=C(N2)C=C(C=C3)C(=O)N)OC4=CC=C(C=C4)Cl
Outline: as §1

[3] = compound: C1=CC2=C(C=CC(=C2)/C=C\3/C(=O)NC(=NCC4=CC=CS4)S3)N=C1
Outline: as §1

[4] = compound: C1=CC2=NC=CN=C2C=C1/C=C/3\C(=O)NC(=O)S3
Outline: as §1

[5] = compound: C1=CC=C(C=C1)C2=NC(=C(N2)C3=CC=NC=C3)C4=CC(=C(C=C4)Cl)O
Outline: as §1

[6] = compound: C1=CC=C2C(=C1)C3=NNC4=CC=CC(=C43)C2=O
Outline: as §1

[7] = compound: C1CCN(C1)C(=O)NC2=CC=CC(=C2)NC3=NC=C(C(=N3)NCCC4=CN=CN4)Br
Outline: as §1

[8] = compound: C1CN(CCC1(CC2=CC=C(C=C2)Cl)N)C3=NC=NC4=C3C=CN4
Outline: as §1

IRAK-1-4 Inhibitor I = compound: C1COCCN1CCN2C3=CC=CC=C3N=C2NC(=O)C4=CC(=CC=C4)[N+](=O)[O-] [IRAK-1-4 Inhibitor I]
Outline: as §1

ibrutinib = compound: C=CC(=O)N1CCC[C@@H](n2nc(-c3ccc(Oc4ccccc4)cc3)c3c(N)ncnc32)C1 [ibrutinib]
Outline: as §1

[9] = compound: CC(=O)c1cnc2ccc(-c3cc(Cl)c(O)c(Cl)c3)nc2c1N[C@H]1CC[C@H](CN(C)C)CC1
Outline: as §1

ralimetinib = compound: CC(C)(C)Cn1c(N)nc2ccc(-c3[nH]c(C(C)(C)C)nc3-c3ccc(F)cc3)nc21 [ralimetinib]
Outline: as §1

[10] = compound: CC(C)(O)CC(=O)NCCn1ccc2ncnc(Nc3ccc(Oc4cccc(C(F)(F)F)c4)c(Cl)c3)c21
Outline: as §1

[11] = compound: CC(C)C1=C2N=C(C=C(N2N=C1)NCC3=CC=CC=C3)NCCCCCCN
Outline: as §1

[12] = compound: CC1=C(C(CC(=O)N1)C2=CC=C(C=C2)C(F)(F)F)C(=O)NC3=C(C=C4C(=C3)C=NN4)F
Outline: as §1

[13] = compound: CC1=C(C2=C(C=C1)C(=O)C3=CC=CC=C3N2CCCN)C
Outline: as §1

[14] = compound: CC1=C(C=C(C=C1)NC(=O)C2=CC(=CC=C2)C(C)(C)C#N)NC3=CC4=C(C=C3)N=CN(C4=O)C
Outline: as §1

[15] = compound: CC1=C(C=C(C=C1)NC(=O)C2=CC(=CC=C2)N(C)C)NC(=O)C3=CC=C(C=C3)O
Outline: as §1

[16] = compound: CC1=CC=C(C=C1)SC2=C3C=C(SC3=CN=C2)C(=O)N
Outline: as §1

Measured: log2 fold change

ATRIP (UniProt Q8WXE1)
inactive: erlotinib -0.009 | [1] 0.032 | [2] -0.023 | [3] 0.227 | [4] 0.046 | [5] 0.064 | [6] 0.266 | [7] -0.059 | [8] -0.057 | IRAK-1-4 Inhibitor I 0.015 | ibrutinib 0.019 | [9] 0.129 | ralimetinib -0.007 | [10] -0.014 | [11] -0.048 | [12] 0.063 | [13] 0.005 | [14] -0.008 | [15] -0.008 | [16] -0.019

ATP1A1 (UniProt P05023)
inactive: erlotinib 0.009 | [1] 0.031 | [2] 0.016 | [3] -0.017 | [4] 0 | [5] 0.014 | [6] -0.001 | [7] -0.014 | [8] -0.001 | IRAK-1-4 Inhibitor I 0.018 | ibrutinib -0.015 | [9] -0.001 | ralimetinib -0.003 | [10] -0.005 | [11] -0.018 | [12] 0 | [13] -0.012 | [14] 0.007 | [15] -0.019 | [16] -0.006

ATP13A3 (UniProt Q9H7F0)
inactive: erlotinib 0.071 | [1] 0.009 | [2] -0.067 | [3] 0.028 | [4] -0.07 | [5] -0.017 | [6] 0.02 | [7] -0.072 | [8] -0.027 | IRAK-1-4 Inhibitor I 0.025 | ibrutinib 0.059 | [9] -0.022 | ralimetinib -0.024 | [10] -0.12 | [11] -0.068 | [12] -0.08 | [13] -0.017 | [14] 0.043 | [15] 0.016 | [16] 0.016

Pulled one by one from the list above, 2 records:
ATP13A3 (UniProt Q9H7F0)
inactive: erlotinib 0.071 | [1] 0.009 | [2] -0.067 | [3] 0.028 | [4] -0.07 | [5] -0.017 | [6] 0.02 | [7] -0.072 | [8] -0.027 | IRAK-1-4 Inhibitor I 0.025 | ibrutinib 0.059 | [9] -0.022 | ralimetinib -0.024 | [10] -0.12 | [11] -0.068 | [12] -0.08 | [13] -0.017 | [14] 0.043 | [15] 0.016 | [16] 0.016

ATRIP (UniProt Q8WXE1)
inactive: erlotinib -0.009 | [1] 0.032 | [2] -0.023 | [3] 0.227 | [4] 0.046 | [5] 0.064 | [6] 0.266 | [7] -0.059 | [8] -0.057 | IRAK-1-4 Inhibitor I 0.015 | ibrutinib 0.019 | [9] 0.129 | ralimetinib -0.007 | [10] -0.014 | [11] -0.048 | [12] 0.063 | [13] 0.005 | [14] -0.008 | [15] -0.008 | [16] -0.019

Continuation:

ATP6V1A (UniProt P38606)
inactive: erlotinib -0.01 | [1] -0.01 | [2] 0.002 | [3] -0.004 | [4] -0.005 | [5] 0.01 | [6] 0.028 | [7] -0.006 | [8] 0.003 | IRAK-1-4 Inhibitor I 0.02 | ibrutinib 0.034 | [9] 0.004 | ralimetinib -0.001 | [10] -0.007 | [11] -0.005 | [12] -0.017 | [13] 0.01 | [14] -0.034 | [15] -0.033 | [16] -0.005

ATP5F1D (UniProt P30049)
inactive: erlotinib -0.006 | [1] 0.035 | [2] -0.043 | [3] -0.003 | [4] 0.016 | [5] -0.014 | [6] -0.035 | [7] 0.019 | [8] 0.046 | IRAK-1-4 Inhibitor I 0.041 | ibrutinib 0.004 | [9] -0.04 | ralimetinib -0.057 | [10] -0.053 | [11] 0.015 | [12] -0.03 | [13] 0.01 | [14] 0.082 | [15] -0.012 | [16] 0.047

ATP2A3 isoform 2 (UniProt Q93084)
inactive: erlotinib 0.008 | [1] 0.109 | [2] -0.048 | [3] 0.005 | [4] 0.002 | [5] -0.013 | [6] -0.018 | [7] -0.025 | [8] 0.074 | IRAK-1-4 Inhibitor I 0.043 | ibrutinib -0.047 | [9] -0.025 | ralimetinib 0.018 | [10] 0.028 | [11] -0.011 | [12] -0.023 | [13] -0.001 | [14] 0.029 | [15] 0.024 | [16] 0.027

ASPH (UniProt Q12797)
inactive: erlotinib 0.003 | [1] -0.028 | [2] -0.013 | [3] 0.075 | [4] -0.011 | [5] 0.006 | [6] -0.022 | [7] -0.011 | [8] 0.01 | IRAK-1-4 Inhibitor I -0.016 | ibrutinib 0.015 | [9] -0.004 | ralimetinib -0.006 | [10] -0.001 | [11] -0.028 | [12] 0.052 | [13] 0.076 | [14] -0.025 | [15] 0.025 | [16] 0

ATP6V1B1 (UniProt P15313)
inactive: erlotinib -0.044 | [1] 0.014 | [2] 0.027 | [3] -0.036 | [4] 0.013 | [5] -0.02 | [6] 0.006 | [7] -0.033 | [8] 0.001 | IRAK-1-4 Inhibitor I 0.019 | ibrutinib -0.001 | [9] 0 | ralimetinib 0.037 | [10] -0.025 | [11] -0.013 | [12] 0.024 | [13] -0.011 | [14] 0.005 | [15] 0.031 | [16] -0.015

ASMTL (UniProt O95671)
inactive: erlotinib 0.008 | [1] 0.004 | [2] 0.013 | [3] 0.001 | [4] 0.029 | [5] -0.005 | [6] -0.007 | [7] 0.001 | [8] 0.022 | IRAK-1-4 Inhibitor I 0.005 | ibrutinib -0.001 | [9] 0.017 | ralimetinib 0.019 | [10] -0.018 | [11] -0.023 | [12] -0.05 | [13] 0 | [14] -0.01 | [15] 0.029 | [16] -0.002

ATG9A (UniProt Q7Z3C6)
inactive: erlotinib 0.021 | [1] 0.028 | [2] 0.022 | [3] 0.073 | [4] 0.026 | [5] 0.002 | [6] -0.033 | [7] -0.113 | [8] 0.015 | IRAK-1-4 Inhibitor I 0.004 | ibrutinib 0.024 | [9] -0.006 | ralimetinib 0.024 | [10] -0.054 | [11] 0.003 | [12] -0.022 | [13] -0.042 | [14] 0.008 | [15] 0.046 | [16] 0.022

ATG16L1 (UniProt Q676U5)
inactive: erlotinib -0.006 | [1] -0.123 | [2] -0.074 | [3] -0.043 | [4] -0.013 | [5] 0.023 | [6] 0.067 | [7] 0.012 | [8] -0.012 | IRAK-1-4 Inhibitor I 0.009 | ibrutinib 0.043 | [9] 0.015 | ralimetinib 0.013 | [10] -0.035 | [11] 0.002 | [12] -0.01 | [13] -0.005 | [14] 0.001 | [15] -0.031 | [16] 0.006

ATAD1 (UniProt Q8NBU5)
inactive: erlotinib 0.004 | [1] 0.046 | [2] -0.016 | [3] 0.027 | [4] -0.059 | [5] -0.041 | [6] 0.004 | [7] -0.029 | [8] 0.015 | IRAK-1-4 Inhibitor I 0.063 | ibrutinib 0 | [9] 0.008 | ralimetinib 0.245 | [10] -0.059 | [11] 0.016 | [12] -0.165 | [13] -0.059 | [14] -0.003 | [15] -0.01 | [16] 0.03

AURKA (UniProt O14965)
inactive: erlotinib 0.111 | [1] -0.028 | [2] -0.033 | [3] 0.008 | [4] 0 | [5] -0.039 | [6] 0.359 | [7] 0.483 | [8] -0.004 | IRAK-1-4 Inhibitor I 0.129 | ibrutinib 0.348 | [9] 0.144 | ralimetinib -0.042 | [10] 0.037 | [11] -0.051 | [12] 0.034 | [13] -0.039 | [14] -0.042 | [15] -0.005 | [16] 0.007

ATP11C (UniProt Q8NB49)
inactive: erlotinib 0.014 | [1] 0.037 | [2] 0.021 | [3] 0.01 | [4] -0.035 | [5] -0.008 | [6] -0.037 | [7] 0.027 | [8] -0.004 | IRAK-1-4 Inhibitor I -0.006 | ibrutinib 0.005 | [9] 0.007 | ralimetinib 0.007 | [10] -0.046 | [11] -0.006 | [12] 0.025 | [13] -0.041 | [14] 0.028 | [15] 0.013 | [16] -0.007

AZI2 (UniProt Q9H6S1)
inactive: erlotinib -0.022 | [1] -0.152 | [2] 0.048 | [3] -0.082 | [4] -0.126 | [5] 0.03 | [6] 0.07 | [7] 0.029 | [8] -0.059 | IRAK-1-4 Inhibitor I 0.03 | ibrutinib -0.16 | [9] 0.026 | ralimetinib 0.025 | [10] -0.079 | [11] -0.261 | [12] 0.058 | [13] -0.025 | [14] 0.151 | [15] 0.03 | [16] 0.028

ASL (UniProt P04424)
inactive: erlotinib 0.006 | [1] 0.048 | [2] 0.017 | [3] -0.004 | [4] -0.026 | [5] 0.008 | [6] 0.012 | [7] -0.008 | [8] -0.009 | IRAK-1-4 Inhibitor I 0.011 | ibrutinib -0.003 | [9] 0 | ralimetinib 0.025 | [10] 0.021 | [11] -0.003 | [12] -0.003 | [13] -0.014 | [14] 0.017 | [15] -0.008 | [16] 0.002
